Data from PubChem BioAssay AID1508600 (Functional Genomics Laboratory (NCATS/FGL), 2020).
Hit rate of the full screen: of about 53,000 sequences, about 3,700 (7%) were called active.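 How the source made its calls: active means gene knockdowns whose robust z-score for IL-1 alpha signal is at least 2 or at most -2, so actives lie on both sides; inactive means the rest.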 The list shows a part of the results.

Assay: Components of the Cytosolic LPS Sensing Pathway: Gene Identification via Genome-wide siRNA Screen;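 further: robust z of the log signal after scaling to non-targeting control siRNA wells of the plate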
Conditions: RAW264.7 macrophages, IL-1a HTRF, actives lie on both sides, screened at 100 nM (by protocol), cells primed 5 h with Pam3CSK4 first
Method in brief: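 Mouse macrophage line RAW264.7 is transfected with siRNA (100 nM final), grown 48h, primed with TLR ligand Pam3CSK4 5 h and given intracellular LipidA 24 h. IL-1a in supernatant is read by HTRF and viability by luminescence.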
In the case of GGACUGCUACAAAGAACAATT against Scgb2b24, the z-score is reported as inactive: -0.207. For GGAAAUGACCCACUCGUGGTT against Aff1, the z-score was inactive: 0.118. For GGCCCAUAAGUCCUUCACCTT against Ttc41, the z-score was inactive: 0.855. With GGCAGAUUGACAGUUUACCTT against Trav7d-6 the z-score was inactive: 0.196. For GGUUAUCCAGAGAGUGCAUTT against Arl4d, the z-score was inactive: 1.01. With GGACUUUUAUUUUGUUAGCTT against Pacsin2 the z-score was inactive: -0.256. With GGACUUGGACAAACAUCAATT against Cox7a1 the z-score was inactive: -0.93. In the case of GGUUUGAGAAUGUUUUAGGTT against Avpr1a, the z-score is reported as inactive: 0.00969. With GGAGCAUUAACUGUCUUGATT against Olfr356 the z-score was inactive: -0.679. For GCAUUUUGAGAAAGCAAUUTT against Rmdn1, the z-score was inactive: -0.0494. For GAAUGAAGUGUUAUCCUGUTT against Tma7, the z-score was inactive: -0.586. For GGAUCCACUAAUGUGAAAATT against Trim39, the z-score was inactive: -0.445. In the case of GCACCUAGCAAAAUGCCUATT against Sntn, the z-score is reported as inactive: -0.567. For GCCUCUGCAUAUGAUUACGTT against Myom1, the z-score was inactive: 1.24. For GGAUCAAUCGUUUUGCUUGTT against Epb41l2, the z-score was inactive: -0.117. With CCAACUGUGAUCAGUGAGCTT against Shank3 the z-score was inactive: -0.387. With GCGGAUGCCAGAUGAUUAUTT against Fcf1 the z-score was inactive: 0.241. With GGAACUUGAACUAAAAAUGTT against Eaf1 the z-score was active: 2.5. For GCUAAGAGUCUUUGGAACGTT against Maff, the z-score was inactive: 0.447. For GCUCUGAGUAUUGAUGGCCTT against Hcfc1r1, the z-score was inactive: -0.819. For GGUGAACUUGAAGUGCCUCTT against Clec3b, the z-score was inactive: 0.946. In the case of CCUCAUGUCUACAAAGUUATT against Gvin1, the z-score is reported as inactive: -1.14. For GGAGAAAUAGGAUGGUCACTT against Zfp46, the z-score was inactive: 0.689. With GGAGAUCUACUUGAAGUUATT against Kdm5d the z-score was inactive: 1.56. With GGUUUGAGAAUUUGACUUCTT against Plekhh3 the z-score was inactive: -0.678. With “GGUGGCUACCUGGUGAUCUTT against A730049H05Rik” the z-score was inactive: -1.76. With CCGUGUGGUUAAAAACUUUTT against Nktr the z-score was inactive: 0.535. With CCUUAGUCGCUUUGUAUGGTT against Drp2 the z-score was inactive: 0.695. With CGACUCCAUGUGGACUUAUTT against Gca the z-score was inactive: -1.16. In the case of GGUGUGAAGGAGAAGUUCATT against Atp6v1a, the z-score is reported as active: 2.01. With GGAGCCGUACAUCUUACACTT against Abhd1 the z-score was inactive: 0.33. With GGAAAACAUUGAAACAGUGTT against Wdr61 the z-score was inactive: 0.0679. With CGCCUUUUGCAUAUCAGAGTT against Defb39 the z-score was inactive: -0.8. For GCAUGCAGCGGUCCAUAUUTT against Cacna2d1, the z-score was inactive: 0.784. With CCUUAAAGCACAGUUCAAUTT against Gca the z-score was inactive: 1.27. In the case of GGGAUCUACAUAUGAGGAATT against Tmem140, the z-score is reported as inactive: -0.121. For GCUAGCUGGAAGACACAUATT against Seh1l, the z-score was inactive: 0.504. In the case of CCGGGUCCGAGUAGAUUUUTT against Kmt2b, the z-score is reported as inactive: 1.72. For CCGACCAUCCCAAGUUAAATT against Olfr199, the z-score was inactive: -1.31. With CCUUCUAGAUGUCUUAAGATT against Zfp41 the z-score was inactive: -0.244. In the case of GGAACUGGGUCCUCAUUCCTT against Capn1, the z-score is reported as inactive: -1.6. For GGAGAUACCCUCGAGUAUATT against Lrrtm3, the z-score was inactive: -0.109. In the case of CGGAUGCGACAAAAAUCACTT against Il4, the z-score is reported as inactive: 1.77. In the case of CCCAGAACGGGAUGAUUCUTT against Trex2, the z-score is reported as active: 2.77. For GGUGACCUGUUCAGAACAUTT against Timm9, the z-score was inactive: 0.302. In the case of CCAUUCGGGUGAAGUUCCATT against Lsm7, the z-score is reported as inactive: 1.52. With GGAGCAACAACUUAAAUGUTT against Slc16a4 the z-score was inactive: 1.18. For GGUAAAGACUGGAUGGCUATT against Art5, the z-score was active: 2.14. With GGAGAAAGACCAUUACUGUTT against Ly6e the z-score was inactive: 1.63. In the case of GGGAGACAGUGAUGGUUACTT against Ip6k1, the z-score is reported as inactive: 1.11. With GGGUCCAAAAGAAAAGUGUTT against Zc2hc1c the z-score was inactive: 0.784. With GGCAUAAACCUUCUUGCUCTT against Ccl22 the z-score was inactive: -0.221. For GGACUAUGCCAGGAAACUGTT against Pgls, the z-score was inactive: -0.0402. For GCCACUGAGAUGUGACGAATT against Pbp2, the z-score was inactive: 0.899. For GAAUCGGAGGACAAAAUACTT against Emx1, the z-score was inactive: 0.368. With GGUGAAGUUGAAUGGAAGUTT against Crebzf the z-score was inactive: -0.9. For “GGAGGCUAUCAGAAGCAUCTT against C130021I20Rik”, the z-score was inactive: 0.762. With GGGCAUUUUAACCAAAUGATT against Marchf11 the z-score was inactive: 0.544. With GCCGUUUUAUUCACGUGAATT against Erp27 the z-score was inactive: -1.36. For GGCACUCCUCUUUGUUUUCTT against Olfr414, the z-score was inactive: -1.82. For GGGUUCUCUUGAGUUACAGTT against Zfp60, the z-score was inactive: -1.56. In the case of GGCAGUGAAAGAACUGGACTT against Serpina1b, the z-score is reported as inactive: -0.181. In the case of GCACUUUACCCACUGAACCTT against Brat1, the z-score is reported as inactive: -0.522. With GCUCUGCUCUUCUGAAGCATT against Dohh the z-score was active: -2.42. For GGACAAGGUCAGCAGUAUGTT against Ss18l1, the z-score was inactive: -0.0498. In the case of GGUUUUACGAAGCUUACAATT against Myo7a, the z-score is reported as inactive: 0.655. For CGAUUAACCCACUCUUGUCTT against Mapkapk2, the z-score was inactive: -0.66. For CCAAAAGGACCAAUCAGUUTT against Slc1a2, the z-score was inactive: 0.688. In the case of GUUCCACUACUUCUGCUCCTT against Olfr583, the z-score is reported as inactive: 0.41. In the case of GGUUCUAGAAAACAUGAACTT against Tdrd1, the z-score is reported as inactive: 1.13. For GCGUGUGUGCCUCUACUUGTT against Naprt, the z-score was inactive: 0.218. For GGUUCAAGCAGAACAAGAATT against Fam220a, the z-score was inactive: -0.727. With GAGACUAGACUAACCCUGUTT against Galr3 the z-score was inactive: -1.16. For GGUGUUUUUUAUCAGUAUGTT against Adamtsl4, the z-score was inactive: -1.11. For GGAUCAGAUUAUUGAGAUGTT against Rexo2, the z-score was inactive: -1.41. For GGGAGUUUGACAUCUUCUATT against Lrrk1, the z-score was inactive: -0.569. In the case of GGAAGUGUUCACCCGAUUCTT against Ckb, the z-score is reported as inactive: -0.0701. In the case of GUUUCUAGCUACCUUCCAGTT against Aqp11, the z-score is reported as inactive: 1.88. With GGAGAUACCUUAGAAGAUATT against Dlg2 the z-score was inactive: -0.074. For CCAUGCAGUACUUCAUCUUTT against Olfr1440, the z-score was inactive: 0.482. With UGAAAAGAGCAAUGAAGAATT against Olfr177 the z-score was inactive: -0.36. For GGCUCAAGGCAUUGAAGGATT against Psmg3, the z-score was inactive: -1.6. For GGAGAUCCUGGCAAAAUACTT against Sgsm3, the z-score was inactive: -0.604. With CACGGGCAUCCUUGACUCCTT against Mbp the z-score was inactive: -0.824. With GGGAUGACCUGCCAUUCAUTT against Atp7a the z-score was active: 3.47. In the case of GGCCAGUUUAAACCAGUCUTT against Frmd6, the z-score is reported as inactive: 0.583. With “GUGGUUAUCCUGUUUUUUGTT against Olfr1273-ps” the z-score was inactive: 0.291. For GGAGUUUUAGGAUAUUCGATT against Adcyap1r1, the z-score was inactive: 0.29. With GCUCUCCCAUCUUUUCUAUTT against Lenep the z-score was inactive: -1.5. For GGAGCUUCCUGCUAUUUUATT against Rxylt1, the z-score was inactive: 0.766. In the case of CCUCAGAGCCACGACAUUUTT against Zfp28, the z-score is reported as inactive: 0.357. In the case of GGGUCUAUUUAUUUAGUAGTT against Alg8, the z-score is reported as inactive: 0.395. With GGAACUUACACAUUUGUUCTT against Tnfsf13b the z-score was inactive: -1.11. For GCAAAGCAUUGCUCUGAGGTT against Msx1, the z-score was inactive: -0.619. In the case of CCACUGUUUAAUAACCCUATT against Sc5d, the z-score is reported as inactive: 0.117. With GGUUCUUCGAAGCAAUAGCTT against Sphkap the z-score was inactive: -0.973. With CCUCAUGACCCGAAAAGAGTT against Patl2 the z-score was inactive: -0.251. With GGUUUGUAUGCUAUAGUUUTT against Cldn11 the z-score was inactive: 0.922. In the case of GGCUGCAUUUAUUGAUAACTT against Kyat3, the z-score is reported as inactive: 1.77. With GGGACACAUACUGUAGUAUTT against Pspc1 the z-score was inactive: 0.00343. With GGAAAGCUCACUAUUGUAUTT against Nrbp2 the z-score was inactive: -1.02. For GCCAGUAGAUUACUUCAUUTT against Cnnm3, the z-score was inactive: 0.0391. In the case of GGUCCCAAGAAUUUUUAAATT against Ndc80, the z-score is reported as inactive: -1.92. With GGCUUGAGUACGAAUGGGATT against Ano5 the z-score was inactive: -0.24. With GCUGACGGACGAAUGCUACTT against Sema6c the z-score was inactive: 0.81. In the case of GGUGGAGACAGAAAUCCAATT against Amot, the z-score is reported as inactive: 0.23. In the case of GGACAACUGCUACGAAGUGTT against Zfp366, the z-score is reported as inactive: -0.818.
